These are yes or no findings as the source states them, for the method shown. Binding seen in cells or lysates may run through a third protein. Some results given as binding are weak or reduced against the parent protein; the word gives no strength. Tags and fused reporters may be left off the sequences shown.
Biological target: T1, FLAG-tagged ATG9B (UniProt Q674R7)
T1 sequence: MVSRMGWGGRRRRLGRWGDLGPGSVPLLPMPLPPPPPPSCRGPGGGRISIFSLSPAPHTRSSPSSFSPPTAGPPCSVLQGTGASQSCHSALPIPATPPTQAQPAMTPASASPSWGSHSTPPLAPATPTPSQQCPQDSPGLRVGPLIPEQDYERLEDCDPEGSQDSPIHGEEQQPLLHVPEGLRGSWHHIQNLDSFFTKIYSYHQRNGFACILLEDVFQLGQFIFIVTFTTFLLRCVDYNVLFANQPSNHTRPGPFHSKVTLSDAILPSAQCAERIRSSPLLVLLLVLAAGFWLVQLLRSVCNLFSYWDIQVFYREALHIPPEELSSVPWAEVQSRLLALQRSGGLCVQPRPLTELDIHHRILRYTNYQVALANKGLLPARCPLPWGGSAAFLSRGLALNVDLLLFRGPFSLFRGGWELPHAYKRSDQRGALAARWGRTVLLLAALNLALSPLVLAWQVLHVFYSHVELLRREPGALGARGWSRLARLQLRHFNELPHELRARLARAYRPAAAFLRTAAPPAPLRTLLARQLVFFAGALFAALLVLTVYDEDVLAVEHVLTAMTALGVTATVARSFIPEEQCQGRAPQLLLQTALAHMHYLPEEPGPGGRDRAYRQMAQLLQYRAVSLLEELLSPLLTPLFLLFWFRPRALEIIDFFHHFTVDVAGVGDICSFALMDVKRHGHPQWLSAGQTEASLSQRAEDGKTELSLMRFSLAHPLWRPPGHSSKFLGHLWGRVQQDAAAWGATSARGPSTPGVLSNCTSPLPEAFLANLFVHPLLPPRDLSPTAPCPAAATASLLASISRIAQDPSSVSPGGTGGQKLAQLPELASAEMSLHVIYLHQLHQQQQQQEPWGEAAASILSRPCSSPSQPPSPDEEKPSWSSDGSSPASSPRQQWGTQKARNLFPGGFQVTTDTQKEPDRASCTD
Assay: co-IP; HEK293T cells transfected with FLAG- and mClover-tagged plasmids; lysis in 10 mM Tris-HCl pH 8.0, 150 mM NaCl, 10 mM MgCl2, 1 mM EDTA, 1% Triton X-100; anti-FLAG antibody 2 h at 4°C, Protein G Sepharose 4B 1 h; five washes; immunoblotting

Amino acid sequences for entries named in this document (tags omitted).
UniProt P60953: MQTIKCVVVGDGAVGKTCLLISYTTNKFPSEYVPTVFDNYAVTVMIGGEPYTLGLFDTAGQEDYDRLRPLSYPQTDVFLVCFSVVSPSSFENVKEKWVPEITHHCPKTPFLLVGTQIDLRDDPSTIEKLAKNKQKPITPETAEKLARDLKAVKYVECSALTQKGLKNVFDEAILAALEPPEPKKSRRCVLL
UniProt P61586: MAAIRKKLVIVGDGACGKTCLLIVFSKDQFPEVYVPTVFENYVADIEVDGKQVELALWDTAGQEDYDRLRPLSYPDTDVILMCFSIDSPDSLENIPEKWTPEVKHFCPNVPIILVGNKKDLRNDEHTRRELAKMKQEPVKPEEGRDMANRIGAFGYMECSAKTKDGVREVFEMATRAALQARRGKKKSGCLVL

Substance | binding
mClover-tagged Cdc42 (from UniProt P60953 1-191) | binds
mClover-tagged RhoA (from UniProt P61586 1-193) | binds

From paper PMC11066431
